## Assay results

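Vaccinia-infected cells with a two-color viral stage reporter; Venus fluorescence read on a plate reader; the cell line is not named here; timing not stated here. The test concentration is not given here. Percent change in Venus reporter signal; lower (more negative) values mean stronger inhibition of that viral stage.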

Values are in %. How 0% and 100% were set is not given here. Common to all entries: measured here: Venus reporter, other viral stage. Part of the compounds only, not a random draw; the main read-out is not listed here.

structure | activity change (Venus) (%)
O=C(Nc1ccccc1)N1CCCCN2[C@H](CO)[C@@H](c3ccc(C#CC4CC4)cc3)[C@@H]2C1 | -43.31
N#Cc1ccc(-c2ccc3c(c2)[C@H]2[C@H](CCN2C(=O)c2ccccc2F)[C@@H](CO)N3)cc1 | -33.73
Cc1noc(C)c1S(=O)(=O)Nc1ccc2c(c1)CC(=O)N([C@@H](C)CO)C[C@@H](C)[C@H](CN(C)Cc1ccc(Cl)c(Cl)c1)O2 | -73.66
C[C@H](CO)N1C[C@H](C)[C@H](CN(C)C)OCCCC[C@H](C)Oc2ccc(NC(=O)Nc3ccc(C(F)(F)F)cc3)cc2C1=O | -22.32
CO[C@H]1CN(C)C(=O)c2ccc(NC(=O)CC(F)(F)F)cc2OC[C@@H](C)N(C(C)=O)C[C@@H]1C | -42.37
CN(C)CC(=O)Nc1ccc2c(c1)[C@@H]1C[C@H](CC(=O)NCc3ccc(-c4ccccc4)cc3)O[C@H](CO)[C@@H]1O2 | -35.12
O=C(c1ccc(F)cc1)N1CC[C@@H]2[C@@H](CO)Nc3ccc(-c4ccccc4F)cc3[C@@H]21 | -38.22
C[C@H]1CCCCO[C@H](CN(C)S(=O)(=O)c2cccs2)[C@@H](C)CN([C@@H](C)CO)C(=O)c2cc(NS(=O)(=O)c3ccc(F)cc3)ccc2O1 | -24.58
C/C=C/c1ccc2c(c1)O[C@H](CN(C)C(=O)Nc1ccc(F)cc1)[C@@H](C)CN([C@H](C)CO)S2(=O)=O | -25.57
COc1ccc(C#Cc2ccc([C@H]3[C@@H](CO)N4CCCCN(C(=O)Nc5ccc(F)cc5)C[C@H]34)cc2)cc1 | -73.45
COc1ccc(S(=O)(=O)Nc2ccc3c(c2)C(=O)N([C@H](C)CO)C[C@@H](C)[C@@H](CN(C)Cc2ccc(C(F)(F)F)cc2)OCCCC[C@H](C)O3)cc1 | -56.46
OC[C@@H]1Nc2ccc(-c3ccccc3)cc2[C@H]2[C@@H]1CCN2Cc1ccccc1F | -11.27
CCc1csc(N2[C@@H](C#N)[C@@H](c3ccc(C#Cc4ccc(F)cc4)cc3)[C@@H]2CO)n1 | -53.69
COc1cccc(S(=O)(=O)N2CCCCN3[C@H](CO)[C@@H](c4ccc(C#CC(C)C)cc4)[C@H]3C2)c1 | -57.64
C[C@H]1CN([C@@H](C)CO)C(=O)c2cc(C#CC3CCCCC3)cnc2O[C@@H]1CN(C)S(=O)(=O)c1ccccc1 | -28.78
COc1ccccc1NC(=O)N1CCCCN2[C@H](C1)[C@H](c1ccc(-c3ccc(C)cc3)cc1)[C@@H]2CO | -21.66
CCCN(C)C[C@H]1Oc2cc(C#Cc3ccccc3OC)ccc2S(=O)(=O)N([C@@H](C)CO)C[C@H]1C | -29.69
C[C@@H]1CN([C@H](C)CO)C(=O)c2cccc(NC(=O)Nc3ccc(C(F)(F)F)cc3)c2O[C@@H]1CN(C)CC1CCCCC1 | -46.47
COc1ccc(C#Cc2ccc3c(c2)O[C@@H](CN(C)C(=O)CN2CCOCC2)[C@@H](C)CN([C@H](C)CO)S3(=O)=O)cc1 | -35.1
CCCN(C)C[C@H]1Oc2cc(C#CCC3CCCC3)ccc2S(=O)(=O)N([C@H](C)CO)C[C@@H]1C | -28.23
Cc1noc(C)c1S(=O)(=O)Nc1ccc2c(c1)C(=O)N([C@@H](C)CO)C[C@@H](C)[C@@H](CN(C)Cc1ccc(C(F)(F)F)cc1)OCCCC[C@@H](C)O2 | -76.62
O=C(C[C@H]1CC[C@@H]2[C@H](COC[C@H](O)CN2C(=O)c2ccccc2)O1)Nc1ccc(-c2ccccc2)cc1 | -29.36
C[C@H](CO)N1C[C@H](C)[C@H](CN(C)S(=O)(=O)c2ccc(F)cc2)Oc2cc(-c3cccc(F)c3)ccc2S1(=O)=O | -37.28
Cc1ccc(S(=O)(=O)Nc2ccc3c(c2)C(=O)N([C@@H](C)CO)C[C@H](C)[C@@H](CN(C)C(=O)Nc2ccc(C(F)(F)F)cc2)OCCCC[C@@H](C)O3)cc1 | -30.63
C[C@@H]1CN([C@H](C)CO)S(=O)(=O)c2ccc(C#CCC3CCCC3)cc2O[C@H]1CN(C)C | -54.2
C[C@@H]1CN([C@@H](C)CO)C(=O)c2c(c3ccccc3n2C)-c2ccccc2CO[C@H]1CN(C)CC1CC1 | -39.31
CC(C)CC#Cc1ccc2c(c1)O[C@@H](CN(C)Cc1ccc3c(c1)OCO3)[C@H](C)CN([C@@H](C)CO)S2(=O)=O | -53.71
CN(C)CC(=O)N1CCCCN2[C@H](CO)[C@@H](c3ccc(/C=C/c4ccccc4)cc3)[C@@H]2C1 | -81.98
C[C@@H]1CN([C@H](C)CO)C(=O)c2cc(NS(=O)(=O)c3cccs3)ccc2O[C@@H](C)CCCCO[C@@H]1CN(C)Cc1ccccc1 | -35.32
C[C@H]1CN([C@@H](C)CO)C(=O)Cc2cc(NC(=O)NC3CCCCC3)ccc2O[C@@H]1CN(C)CC1CCCCC1 | -56.85
C[C@H](CO)N1C[C@H](C)[C@H](CN(C)C(=O)Nc2ccc(F)cc2)Oc2c(NC(=O)c3nc4ccccc4s3)cccc2C1=O | -18.6
C[C@H](CO)N1C[C@H](C)[C@H](CN(C)Cc2cccc(C(F)(F)F)c2)Oc2ncc(C#Cc3ccccc3)cc2C1=O | -33.76
C[C@@H]1CCCCO[C@H](CN(C)CC2CCCCC2)[C@H](C)CN([C@H](C)CO)C(=O)c2cc(NC(=O)C3CCCCC3)ccc2O1 | -69.55
COc1ccccc1NC(=O)N1CC(=O)N2[C@H](CO)[C@H](c3ccc(C#Cc4ccc(F)cc4)cc3)[C@@H]2C1 | -33.18
C[C@H](CO)N1C[C@H](C)[C@@H](CN(C)Cc2ccccc2C(F)(F)F)OCc2ccccc2-c2ccccc2C1=O | -34.39
C[C@@H]1CN([C@@H](C)CO)C(=O)c2c(c3ccccc3n2C)-c2ccccc2CO[C@H]1CN(C)S(=O)(=O)c1ccc([N+](=O)[O-])cc1 | -43.04
C[C@@H]1CCCCO[C@H](CN(C)S(=O)(=O)c2ccccc2)[C@H](C)CN([C@@H](C)CO)C(=O)c2cc(NS(=O)(=O)c3ccccc3)ccc2O1 | -28.42
COc1ccc(-c2ccc3c(c2)O[C@H](CN(C)Cc2cccnc2)[C@H](C)CN([C@H](C)CO)S3(=O)=O)cc1 | -28.42

Some entries from above, unchanged:

structure,activity change (Venus) (%)
C[C@@H]1CN([C@H](C)CO)S(=O)(=O)c2ccc(C#CCC3CCCC3)cc2O[C@H]1CN(C)C,-54.2
COc1cccc(S(=O)(=O)N2CCCCN3[C@H](CO)[C@@H](c4ccc(C#CC(C)C)cc4)[C@H]3C2)c1,-57.64

The results are deposited in PubChem (AID1053133; Broad Institute, 2014).